This note sets out measurements from the supplement of paper PMC7024190.

Each structure is given as a SMILES string. This is one part of the list. Repeats in this data set agree poorly, so a single value says little.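 Human embryonic kidney cells were transiently transfected with a plasmid bearing a Renilla luciferase gene under the HSV-TK promoter. This first-round screen tests roughly ten thousand compounds for ones that increase reporter output.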

The assay has as its system HEK 293FT. Kind of assay: log relative Renilla luciferase luminescence (reporter expression vs reference, reference not stated) (log (base not stated)); higher = higher recombinant reporter expression. Conditions: 10 µM; time after transfection 48 h. The procedure:
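HEK 293FT cells transiently transfected with pRL-TK (Renilla luciferase) were treated with compounds at 10 uM and luminescence was read about 42 h later. Values are log relative Renilla luminescence (log base and reference not stated). Single-pass screen; 2080 natural products library.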
Regarding `CC1(C)[C@H](O)CC[C@]2(C)[C@@H]1CCC1=C[C@@](C)([C@@H](O)CO)CC[C@]12O` [9-Hydroxydarutigenol], the log is -0.157.

With `COc1cc2c(c(OC)c1OC)-c1c(cc3c(c1OC)OCO3)[C@H](O)[C@H](C)[C@H](C)C2` [Isogomisin O], the log is -0.344.

Regarding `O=Cc1ccc(O)cc1` [4-Hydroxybenzaldehyde], the log was -0.672.

Regarding `CC1=C[C@H](O)CC(C)(C)[C@H]1/C=C/C(C)=C/C=C/C(C)=C/C=C/C=C(C)/C=C/C=C(C)/C=C/C1=C(C)C[C@@H](O)CC1(C)C` [Lutein], the log was 0.143.

Consider `COC(=O)C1=CO[C@H](C)[C@H]2CN3CCc4c([nH]c5ccccc45)[C@@H]3C[C@H]12` [Mayumbine], for which the log turned out to be 0.168.

For the compound `C=C[C@]1(C)CC[C@]2(C)[C@@H](C1)C(=O)C[C@H]1[C@]3(C)CCC[C@@]12OC3=O` [Rosenonolactone], the log is -0.184.

For `CC[C@H](CC[C@@H](C)[C@H]1CC[C@H]2[C@@H]3CC(=O)C4=CC(=O)CC[C@]4(C)[C@H]3CC[C@]12C)C(C)C` [Stigmast-4-ene-3,6-dione], the log was -0.179.

As for `CC(C)=CCC/C(C)=C/COc1c2occc2cc2ccc(=O)oc12` [8-Geranyloxypsoralen], the log is -0.0581.

As for `CC(C)=C1CC[C@]2(C)CCC[C@](C)(O)[C@H]2C1` [enantio-7(11)-Eudesmen-4-ol], the log amounted to 0.075.

As for `C[C@@H]1C(=O)O[C@@H]2C[C@@]3(C)O[C@@H]3C[C@H](O)[C@@]3(C)O[C@@H]3C[C@H]12` [Carabrolactone A], the log is -0.0479.

For `C[C@@H]1[C@@H]2COC(=O)C[C@H]2C[C@@H]1O` [Isoboonein], the log was -0.0794.

As to `C=CC(C)(O)CCC(O)C(C)(C)O` (stereo not given) [2,6-Dimethyl-7-octene-2,3,6-triol], the log worked out at 0.282.

In the case of `C1=C/C2=C/c3ccc([nH]3)Cc3ccc([nH]3)/C=c3/cc/c([nH]3)=C/C1=N2` [Phlorin], the log was found to be 0.08.

On to `C=C1C(=O)[C@]23C[C@H]1CC[C@H]2[C@@]1(CCCC(C)(C)[C@H]1CO)COC3=O` [Sculponeatin N], for which the log was -0.0547.

Consider `C=C1[C@@H]2CC[C@@H]3[C@](C2)(C(=O)OC[C@]32[C@@H]3CC[C@@]4(C)CO[C@H](O3)[C@H]42)[C@@H]1O` [Sculponeatin K], for which the log was -0.212.

On to `OCc1ccccc1O` [Salicyl alcohol], for which the log was -0.56.

For the compound `CCCCCCCCC/C=C/CCC[C@@H](O)[C@@H](O)[C@H](CO[C@@H]1O[C@H](CO)[C@@H](O)[C@H](O)[C@H]1O)NC(=O)[C@H](O)CCCCCCCCCCCCCCCCCCCCCC` [Momor-cerebroside I], the log is -0.108.

For `CC(=O)OC[C@H](O)[C@]1(C)C=C2CC[C@@H]3C(C)(C)[C@H](O)CC[C@@]3(C)[C@@H]2CC1` [16-O-Acetyldarutigenol], the log stood at 0.0106.

For `CC(C)=CCC/C(C)=C/CC/C(C)=C/CC/C=C(\C)CC/C=C(\C)CCC=C(C)C` [Squalene], the log is -0.27.

With `Cc1c(O)c2c(c(C)c1CCO)C(=O)C(C)(C)C2` [Onitin], the log was 0.0762.

Regarding `Cc1c(C(=O)O)c(=O)c2ccccc2n1C` [1,4-Dihydro-1,2-dimethyl-4-oxo-3-quinolinecarboxylic acid], the log was -0.172.

Consider `CC(=O)O[C@H]1CC[C@@]2(C)C(CC[C@]3(C)[C@@H]2CCC2=C4CC(C)(C)CC[C@]4(C)CC[C@]23C)C1(C)C` (stereo not given in full) [delta-Amyrin acetate], for which the log was -0.14.

With `COc1ccc(-c2cc(=O)c3c(O)c(C)c(OC)c(C)c3o2)cc1` [Eucalyptin], the log was 0.0202.

For `C/C(=C\C(=O)CC(C)C)[C@H]1CC=C(C(=O)O)CC1` [9-Oxo-2,7-bisaboladien-15-oic acid], the log is -0.00651.

Turning to `C=C1CC[C@H]2C(=C)CC[C@@H]3[C@H](OC(=O)[C@H]3CS(=O)(=O)O)[C@@H]12` [Sulfocostunolide A], the log is -0.0729.

Regarding `COc1cc(C(=O)O)ccc1O` [Vanillic acid], the log was -0.163.

On to `COc1c(O)cc(-c2oc3cc(O)cc(O)c3c(=O)c2O[C@@H]2O[C@@H](C)[C@H](O)[C@@H](O)[C@H]2O)cc1O` [Mearnsitrin], for which the log is -0.435.

For the compound `COC(=O)N1c2ccccc2[C@@]23[C@@H]4CN5CCC[C@@](CC[C@]12C(=O)OC)(CC4=O)[C@H]53` [Methyl chanofruticosinate], the log is -0.0216.

`COc1cc(OC)c(O[C@@H]2O[C@H](CO)[C@@H](O)[C@H](O)[C@H]2O)c(OC)c1` [2,4,6-Trimethoxyphenol 1-O-beta-D-glucopyranoside]: the log was -0.642.

Take `CC1(C)C=C(CO)[C@]2(C)[C@H]3CC=C4[C@@H]5[C@H](O)C(C)(C)CC[C@]5(C(=O)O)CC[C@@]4(C)[C@]3(C)CC[C@@H]12` [Sculponeatic acid]: the log was -0.422.

`C=C(C)[C@H](/C=C/[C@@H](C)[C@H]1CC[C@H]2[C@@H]3CC=C4C[C@@H](O)CC[C@]4(C)[C@H]3CC[C@]12C)CC` [22-Dehydroclerosterol]: the log was -0.0961.

With `CC1=CC(=O)CC(C)(C)[C@@]1(O)/C=C/[C@@H](C)O[C@@H]1O[C@H](CO)[C@@H](O)[C@H](O)[C@H]1O` [Roseoside], the log was -0.382.

Turning to `COc1c(O)cc(CC2(O)Oc3cc(O)cc(O)c3C2=O)cc1O` (stereo not given) [Amaronol B], the log was 0.16.

Consider `O=C(O)CCc1nccc2c1[nH]c1ccccc12` [Beta-Carboline-1-propanoic acid], for which the log was -0.186.

`O=c1c2ccccc2nc2n1CCC2` [Deoxyvasicinone]: the log is -0.282.

For the compound `C=C(C)[C@@H]1CC[C@]2(C(=O)OC)CC[C@]3(CO)[C@H](CC[C@@H]4[C@@]5(C)CC[C@@H](O)C(C)(C)[C@@H]5CC[C@]43C)[C@@H]12` [3,27-Dihydroxy-20(29)-lupen-28-oic acid methyl ester], the log was -0.074.

For the compound `COC(=O)c1ccc(O)cc1` [Methyl 4-hydroxybenzoate], the log was -0.248.

Turning to `C[C@H]1C(=O)CC[C@@H]2[C@]1(C)CC[C@H]1[C@@]2(C)CC[C@@]2(C)[C@@H]3CC(C)(C)CC[C@]3(C)CC[C@]12C` [Friedelin], the log is -0.0313.

For `CC1=C(C(=O)O)C(C)(C)CC(O)C1` (stereo not given) [4-Hydroxy-2,6,6-trimethyl-1-cyclohexenecarboxylic acid], the log is -0.184.

As to `COc1cc(C2Oc3cc4oc(=O)ccc4cc3OC2COC(C)=O)cc(OC)c1OC(C)=O` (stereo not given) [Moluccanin diacetate], the log is -0.159.
